Source: ChEMBL document CHEMBL3612047, “Synthesis, antiproliferative activity and possible mechanism of action of novel 2-acetamidobenzamides bearing the 2-phenoxy functionality” (Bioorg Med Chem, 2015)

Tested on: K562
Experiment: Growth inhibition of human K562 cells incubated for 24 hrs by trypan blue dye exclusion assay
Assay type: functional, cell-based
Conditions: K562, 24 h
In short: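 K562 cells, about 2 × 10⁵ cells/mL, precultured 24 h, then exposed 24 h to a range of compound concentrations. Viable cells counted by hemocytometer with trypan blue exclusion to derive IC₅₀.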

`COc1cc2c(c(OC)c1OC)-c1ccc(OC)c(=O)cc1[C@@H](NC(C)=O)CC2` [COLCHICINE] was tested, and the IC50 was 0.02 µM.
